{
  "sequences": {"note": "The chains behind the UniProt entries cited, without tags or fusion partners. Residues count along the entry.", "UniProt Q9BYF1, residues 19-615": "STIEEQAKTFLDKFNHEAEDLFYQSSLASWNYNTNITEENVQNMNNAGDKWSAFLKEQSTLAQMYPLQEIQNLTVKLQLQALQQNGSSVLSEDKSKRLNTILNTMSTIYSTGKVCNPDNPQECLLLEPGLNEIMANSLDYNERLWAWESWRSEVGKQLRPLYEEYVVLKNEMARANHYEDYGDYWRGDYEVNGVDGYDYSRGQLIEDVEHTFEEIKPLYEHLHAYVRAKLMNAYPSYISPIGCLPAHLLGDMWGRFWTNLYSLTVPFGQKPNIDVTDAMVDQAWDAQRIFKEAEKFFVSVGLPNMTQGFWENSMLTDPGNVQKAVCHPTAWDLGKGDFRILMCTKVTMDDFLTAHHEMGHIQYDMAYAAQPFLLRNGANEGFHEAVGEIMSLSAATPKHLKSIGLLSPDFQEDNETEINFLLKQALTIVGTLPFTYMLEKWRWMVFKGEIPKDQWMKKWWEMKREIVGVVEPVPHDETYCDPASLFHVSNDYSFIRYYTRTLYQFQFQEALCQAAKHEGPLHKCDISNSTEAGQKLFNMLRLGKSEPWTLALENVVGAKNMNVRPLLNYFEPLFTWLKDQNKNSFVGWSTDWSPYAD"},
  "source": "paper PMC13071878",
  "about": "“Yeast Display Technology Enables Rapid Discovery of Low-Nanomolar Macrocyclic Peptide Inhibitors of Human Angiotensin-Converting Enzyme 2” (Journal of Medicinal Chemistry, 2026)",
  "test_in_all_cases": "flow cytometry on cells; yeast surface display titration: yeast cells displaying the MP incubated with soluble biotinylated hACE2 (100 pM to 3 μM), at least 1 h, room temperature; neutravidin-DyLight 650 detection, binding MFI normalised to display (anti-HA) MFI; one-site fit; apparent KD; n = 3; only the binder purified",
  "key": {"[1]": {"target": "T1, GR1.6 (L5A), yeast-displayed alanine mutant of GR1.4", "T1 sequence (peptide)": "ACEPAGYNLFLCSG"}, "[2]": {"target": "T2, GR1.7 (G6A), yeast-displayed alanine mutant of GR1.4", "T2 sequence (peptide)": "ACEPLAYNLFLCSG"}, "[3]": {"target": "T3, GR1.8 (Y7A), yeast-displayed alanine mutant of GR1.4", "T3 sequence (peptide)": "ACEPLGANLFLCSG"}, "[4]": {"target": "T4, GR1.9 (N8A), yeast-displayed alanine mutant of GR1.4", "T4 sequence (peptide)": "ACEPLGYALFLCSG"}},
  "note": "Results are given in words; binding and its absence hold for the method and conditions named. Some results given as binding are weak or reduced against the parent protein; the word gives no strength.",
  "data": [
    {"substance": "human angiotensin-converting enzyme 2, extracellular catalytic domain, produced in mammalian cells (glycosylated), biotinylated (from UniProt Q9BYF1 19-615)", "values": [
      {"measurement": "binding", "setting": "[1]", "value": "no binding (tested: up to 3 μM hACE2)"},
      {"measurement": "binding", "setting": "[2]", "value": "no binding (tested: up to 3 μM hACE2)"},
      {"measurement": "binding", "setting": "[3]", "value": "no binding (tested: up to 3 μM hACE2)"},
      {"measurement": "binding", "setting": "[4]", "value": "binds"}
    ]}
  ]
}
